Data reported in publication PMC5511349.
No constants are given. Whether binding was seen depends on the method and setting. In cells and extracts the contact can be indirect. Some results given as binding are weak or reduced against the parent protein; the word gives no strength.

Chains of the proteins cited; added tags and fusions are not shown.
UniProt P17844: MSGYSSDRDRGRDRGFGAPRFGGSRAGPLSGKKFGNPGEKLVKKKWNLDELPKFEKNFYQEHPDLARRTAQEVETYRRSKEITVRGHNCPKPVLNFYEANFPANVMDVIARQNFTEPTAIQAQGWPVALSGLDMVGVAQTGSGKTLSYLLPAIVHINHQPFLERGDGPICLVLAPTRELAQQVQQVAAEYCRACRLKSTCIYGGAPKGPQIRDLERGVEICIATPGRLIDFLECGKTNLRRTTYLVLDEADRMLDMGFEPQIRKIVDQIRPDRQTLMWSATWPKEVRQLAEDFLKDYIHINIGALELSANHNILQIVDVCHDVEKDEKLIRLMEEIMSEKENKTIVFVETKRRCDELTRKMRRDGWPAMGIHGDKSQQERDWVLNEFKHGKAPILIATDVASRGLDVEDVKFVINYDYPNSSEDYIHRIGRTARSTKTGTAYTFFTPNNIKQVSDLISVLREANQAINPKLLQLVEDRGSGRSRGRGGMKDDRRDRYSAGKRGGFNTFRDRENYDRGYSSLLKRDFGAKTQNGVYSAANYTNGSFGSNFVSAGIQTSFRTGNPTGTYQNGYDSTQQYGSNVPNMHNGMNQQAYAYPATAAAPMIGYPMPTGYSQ
UniProt Q92841: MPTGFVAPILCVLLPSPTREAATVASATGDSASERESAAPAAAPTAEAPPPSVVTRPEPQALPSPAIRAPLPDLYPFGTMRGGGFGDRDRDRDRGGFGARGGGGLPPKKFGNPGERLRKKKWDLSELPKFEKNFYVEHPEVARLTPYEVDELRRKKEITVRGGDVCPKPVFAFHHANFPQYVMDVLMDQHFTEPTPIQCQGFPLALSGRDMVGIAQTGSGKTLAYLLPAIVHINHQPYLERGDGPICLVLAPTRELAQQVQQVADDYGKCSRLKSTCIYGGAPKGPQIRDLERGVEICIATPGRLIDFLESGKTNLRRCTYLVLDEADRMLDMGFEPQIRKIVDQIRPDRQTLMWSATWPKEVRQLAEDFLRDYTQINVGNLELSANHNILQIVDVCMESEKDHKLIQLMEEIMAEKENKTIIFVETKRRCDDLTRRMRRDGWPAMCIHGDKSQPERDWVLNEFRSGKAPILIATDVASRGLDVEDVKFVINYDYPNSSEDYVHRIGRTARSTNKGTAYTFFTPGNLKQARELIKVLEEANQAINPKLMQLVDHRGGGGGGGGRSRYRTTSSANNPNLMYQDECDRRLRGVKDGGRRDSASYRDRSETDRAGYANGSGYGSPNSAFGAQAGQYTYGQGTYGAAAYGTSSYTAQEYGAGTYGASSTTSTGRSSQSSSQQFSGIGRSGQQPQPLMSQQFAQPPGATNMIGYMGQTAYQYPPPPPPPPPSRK

Target: DDX5 (human (endogenous in K562 or 293T cells)) (UniProt P17844)
Experiment: co-IP; cells crosslinked with 1% formaldehyde 10 min, nuclei lysed and sonicated; immunoprecipitated with anti-DDX5 (Bethyl A300-523A), blotted for DDX17 (Bethyl A300-509A)

Substance: DDX17 (from UniProt Q92841 1-729)
- binding: binds
